Laboratory results published in paper doi:10.1101/2022.03.09.483624.
No constants are given. Whether binding was seen depends on the method and setting. Binding seen in cells or lysates may run through a third protein. These calls come from enrichment with a bait or labelling near it, and not all partners need be listed. Sequences can lack the tags named with a protein.

Target: T1, HA-Sin3B-BirA* (UniProt O75182)
T1 sequence: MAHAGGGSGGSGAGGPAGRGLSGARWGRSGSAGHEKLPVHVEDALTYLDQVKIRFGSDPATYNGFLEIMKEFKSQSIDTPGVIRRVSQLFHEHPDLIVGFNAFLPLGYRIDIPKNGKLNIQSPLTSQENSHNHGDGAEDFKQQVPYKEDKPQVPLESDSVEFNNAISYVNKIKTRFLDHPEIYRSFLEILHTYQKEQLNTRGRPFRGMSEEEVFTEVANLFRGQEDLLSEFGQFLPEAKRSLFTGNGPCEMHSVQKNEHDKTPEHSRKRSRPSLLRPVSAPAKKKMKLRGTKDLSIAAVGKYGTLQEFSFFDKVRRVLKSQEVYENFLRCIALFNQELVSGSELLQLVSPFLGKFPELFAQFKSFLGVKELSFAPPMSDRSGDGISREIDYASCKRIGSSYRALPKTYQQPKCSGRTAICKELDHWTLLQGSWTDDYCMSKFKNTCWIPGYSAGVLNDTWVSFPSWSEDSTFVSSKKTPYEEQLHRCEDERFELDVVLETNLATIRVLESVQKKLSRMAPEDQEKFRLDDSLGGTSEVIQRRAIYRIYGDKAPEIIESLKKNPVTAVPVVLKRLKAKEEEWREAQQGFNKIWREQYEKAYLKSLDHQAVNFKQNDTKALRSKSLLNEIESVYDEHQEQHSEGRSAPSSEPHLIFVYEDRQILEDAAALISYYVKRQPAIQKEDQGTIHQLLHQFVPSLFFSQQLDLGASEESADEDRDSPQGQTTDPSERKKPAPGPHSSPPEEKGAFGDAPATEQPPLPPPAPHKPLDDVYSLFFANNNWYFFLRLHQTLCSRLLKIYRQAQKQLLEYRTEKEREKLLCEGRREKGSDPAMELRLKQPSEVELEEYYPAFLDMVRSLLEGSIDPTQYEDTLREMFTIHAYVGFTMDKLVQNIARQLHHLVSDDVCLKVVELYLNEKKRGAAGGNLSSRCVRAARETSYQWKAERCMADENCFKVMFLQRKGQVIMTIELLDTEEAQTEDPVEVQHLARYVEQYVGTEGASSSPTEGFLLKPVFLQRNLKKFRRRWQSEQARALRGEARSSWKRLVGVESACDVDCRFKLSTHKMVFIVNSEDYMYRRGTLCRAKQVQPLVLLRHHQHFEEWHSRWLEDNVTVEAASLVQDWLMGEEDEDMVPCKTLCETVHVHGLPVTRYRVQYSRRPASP
Experiment: proximity labelling

binding	Substance
binds	RIF1 (from UniProt Q5UIP0 1-2472)
binds	BRCA2 (from UniProt P51587 1-3418)
binds	53BP1 (from UniProt Q12888 1-1972)
